In patent US7897598B2, “Inhibitors of the anandamide transporter” (priority 1998, dated 2011):
For at least one compound, name, drawing or mass did not settle the structure.

Assays:
[1] = test system: anandamide transporter; assay: [3H]anandamide accumulation in neurons; format: cell-based, rat
[2] = test system: anandamide transporter; assay: Transport (translocation) of radioactively labeled substrates into astrocytoma cells; format: cell-based, human; settings: radioactively labeled compound
[3] = test system: anandamide transporter; assay: [3H]anandamide accumulation in cortical astrocytes in culture; format: cell-based, rat
[4] = test system: male Swiss mice; settings: mouse, in vivo

CCCCC/C=C\C/C=C\C/C=C\C/C=C\CCCC(=O)NCCO [anandamide, Arachidonyl ethanolamide]
Vmax, higher affinity component [1]: 5.9 pmol/min per milligram of protein
Vmax, lower affinity component [1]: 90.9 pmol/min per milligram of protein
time to reach 50% of maximum accumulation [1]: within about four minutes
Vmax, maximal accumulation rate [2]: 14.7±01.5 pmol/min per mg of protein
Km ([2]; read-out: apparent Km of accumulation): 0.6 ± 0.1 µM
Vmax, single high-affinity component [3]: 171 pmol/min per milligram of protein
effect on [3H]anandamide accumulation (in words) [3]: prevented
analgesia (in words) [4]: modest but significant analgesia
